Settings: steers; approximately 43 g of active daily, top dressed on TMR d 7-14

CSCCC(O)C(=O)O (centres unmarked) [MHA, Methionine hydroxy analog]
Body weight: 503.3 kg | Feed Intake: 11.4 kg as-fed
